No constants are given. Whether binding was seen depends on the method and setting. In cells and extracts the contact can be indirect. Some results given as binding are weak or reduced against the parent protein; the word gives no strength.
What was measured:
[1] = biological target: GluN2B subunit, R519Q disease-associated variant (human GRIN2B) (human) (UniProt Q13224); assay: co-IP
[2] = biological target: GluN2B subunit, R519Q variant with F1307A disruption of the LIR motif (human GRIN2B) (human) (UniProt Q13224); assay: co-IP

Molecule | binding [1] | binding [2]
Beclin 1 (from UniProt Q14457 1-450) | binds | binds
CCPG1 (ER-phagy receptor) (protein, UniProt Q9ULG6 1-757) MSENSSDSDSSCGWTVISHEGSDIEMLNSVTPTDSCEPAPECSSLEQEELQALQIEQGESSQNGTVLMEETAYPALEETSSTIEAEEQKIPEDSIYIGTASDDSDIVTLEPPKLEEIGNQEVVIVEEAQSSEDFNMGSSSSSQYTFCQPETVFSSQPSDDESSSDETSNQPSPAFRRRRARKKTVSASESEDRLVAEQETEPSKELSKRQFSSGLNKCVILALVIAISMGFGHFYGTIQIQKRQQLVRKIHEDELNDMKDYLSQCQQEQESFIDYKSLKENLARCWTLTEAEKMSFETQKTNLATENQYLRVSLEKEEKALSSLQEELNKLREQIRILEDKGTSTELVKENQKLKQHLEEEKQKKHSFLSQRETLLTEAKMLKRELERERLVTTALRGELQQLSGSQLHGKSDSPNVYTEKKEIAILRERLTELERKLTFEQQRSDLWERLYVEAKDQNGKQGTDGKKKGGRGSHRAKNKSKETFLGSVKETFDAMKNSTKEFVRHHKEKIKQAKEAVKENLKKFSDSVKSTFRHFKDTTKNIFDEKGNKRFGATKEAAEKPRTVFSDYLHPQYKAPTENHHNRGPTMQNDGRKEKPVHFKEFRKNTNSKKCSPGHDCRENSHSFRKACSGVFDCAQQESMSLFNTVVNPIRMDEFRQIIQRYMLKELDTFCHWNELDQFINKFFLNGVFIHDQKLFTDFVNDVKDYLRNMKEYEVDNDGVFEKLDEYIYRHFFGHTFSPPYGPRSVYIKPCHYSSL | binds | binds
